According to patent publication US8841077B2, “Biomarkers for amyotrophic lateral sclerosis and methods using the same” (Massachusetts General Hospital, priority 2006, dated 2014):
Square brackets hold non-standard residues; d marks the D form. Peptide text beside a SMILES is read from it.

Experiments:
[1] = Metabolomic profiling of blood plasma, 62 ALS subjects vs 62 control subjects (Example 3; Tables 7, 8); assay type: in vivo, human
[2] = Metabolomic profiling (GC-MS/LC-MS) of CSF samples, ALS subjects vs control subjects (Example 1; Tables 3, 4); assay type: in vivo, human; conditions: CSF
[3] = blood plasma, ALS mean level compared to control mean level, positive = increase in ALS
[4] = blood plasma, ALS mean level vs control mean level, 62 ALS vs 62 control subjects, analytical platform GC-MS
[5] = blood plasma, ALS mean level vs control mean level, 62 ALS vs 62 control subjects, analytical platform LC-MS
[6] = ALS mean as compared to control mean, T-tests of ALS vs. Controls
[7] = ALS mean as compared to the control mean
[8] = mean in ALS samples as compared to control samples
[9] = mean in ALS samples vs control samples, T-tests

Compound	% change in ALS [1, 3] [%]	% change in ALS [1, 4] [%]	% change in ALS [2, 6] [%]	% change in ALS [2, 7] [%]	Increase (+) or Decrease (−) in ALS [2, 9]	further results
C[C@H](CCC(=O)O)[C@H]1CC[C@H]2[C@@H]3[C@H](O)C[C@@H]4C[C@H](O)CC[C@]4(C)[C@H]3C[C@H](O)[C@]12C	11	11				
O=P(O)(O)OC(CO)CO	−1					
O=Cc1ccc(O)cc1	12					% change in ALS [1, 5]: 12%
COc1ccc(/C=C/C(=O)O)c(OC)c1OC	−5					
C[C@H](CCC(=O)NCC(=O)O)[C@H]1CC[C@H]2[C@@H]3[C@H](O)C[C@@H]4C[C@H](O)CC[C@]4(C)[C@H]3C[C@H](O)[C@]12C	39					% change in ALS [1, 5]: 39%
CC(=O)Nc1ccc(OS(=O)(=O)O)cc1	571					% change in ALS [1, 5]: 571%
CC[C@H](O)C(=O)O	21	21				
OC[C@@H](O)[C@@H](O)CO	−2	−2				
OC[C@H]1OC[C@H](O)[C@@H](O)[C@@H]1O	10	10				
C[n+]1cccc(C(N)=O)c1	2					
O=S(=O)(O)Oc1c[nH]c2ccccc12	0					
C[C@](N)(Cc1ccc(O)c(O)c1)C(=O)O	24	24				
O=C(O)C(O)Cc1c[nH]c2ccccc12 (racemic)	3					% change in ALS [1, 5]: 3%
O=C(O)[C@@H]1C[C@@H](O)CN1 (relative stereo) [trans-4-hydroxyproline]	10	10				
CCC(C)C(=O)C(=O)O (centres unmarked) [3-methyl-2-oxovaleric acid]	−9	−9				
O=C1CC(C(=O)O)NC(=O)N1 (centres unmarked) [5-6-dihydroorotic acid]	−7	−7				
O=C(O)[C@H](O)[C@@H](O)[C@H](O)[C@H](O)COP(=O)(O)O [6-phosphogluconic acid]	−22					% change in ALS [1, 5]: −22%
CCCCC/C=C\C/C=C\CCCCCCCC(=O)O [9-12-octadecadienoic acid-z-z-]	3					
CCCCC/C=C\C/C=C\CCCCCCCC(=O)O [9-12-octadecadienoic acid-z-z]		3				
CC(=O)OP(=O)(O)O [Acetylphosphate]	−10					% change in ALS [1, 5]: −10%
NC(=O)C[C@H](N)C(=O)O [Asparagines]	−9	−9				
NCCC(=O)N[C@@H](Cc1cnc[nH]1)C(=O)O [Carnosine]	−35					% change in ALS [1, 5]: −35%
C[C@@H](N)C(=O)N[C@H](C)C(=O)O [D-alanyl-D-alanine] (H-[dA]-[dA]-OH)	7					% change in ALS [1, 5]: 7%
OC[C@@H](O)C(O)[C@H](O)CO [D-arabitol]	−14	−14				
O=C[C@@H](O)[C@@H](O)[C@H](O)CO [D-lyxose]	−16	−16				
N[C@@H](Cc1ccc(O)c(O)c1)C(=O)O [DOPA]	1					

Compound	% change in ALS [1, 3] [%]	% change in ALS [1, 4] [%]	% change in ALS [2, 6] [%]	% change in ALS [2, 7] [%]	Increase (+) or Decrease (−) in ALS [2, 9]	further results
C[C@@H]1NC(=O)N[C@@H]1CCCCCC(=O)O [Dethiobiotin]	0					
NCCc1ccc(O)c(O)c1 [Dopamine]	−3	−3				
CNC[C@H](O)c1ccc(O)c(O)c1 [Epinephrine]						% change in ALS ([1]; human, in vivo): 3%
O=C(O)[C@@H](O)[C@@H](O)[C@H](O)[C@@H](O)C(=O)O [Glucarate]	4	4				
O=CC(O)CO (centres unmarked) [Glyceraldehydes]	38	38				
O=C(O)C(O)CO (centres unmarked) [Glycerate]	3					% change in ALS [1, 5]: 3%
C[C@H](O)[C@H](N)C(=O)O [L-allo-threonine]	−17	−17				
O=C(O)[C@@H](O)Cc1cnc[nH]1 [L-beta-imidazolelactic acid]	4	4				
O=c1[nH]c(=O)c2[nH]cnc2[nH]1 [Xanthine - 35, Xanthine]			−1	−1	−	Increase (+) or Decrease (−) in ALS [2, 8]: −
OC[C@@H](O)[C@H](O)[C@@H](O)CO [Xylitol - 35, Xylitol]			8	8	+	Increase (+) or Decrease (−) in ALS [2, 8]: +
Nc1ccccc1C(=O)CC(N)C(=O)O (stereo not drawn) [alpha-2-diamino-gamma-oxobenzenebutanoic acid]			76	76	+	Increase (+) or Decrease (−) in ALS [2, 8]: +
O=C(O)C(O)Cc1ccc(O)cc1 (stereo not drawn) [alpha-4-dihydroxybenzenepropanoic acid - 35]			−38	−38	−	Increase (+) or Decrease (−) in ALS [2, 8]: −
O=P(O)(O)OC[C@H]1O[C@H](O)[C@H](O)[C@@H]1O [alpha-D-ribose-5-phosphate - 35, alpha-D-ribose-5-phosphate]			−2	−2	−	Increase (+) or Decrease (−) in ALS [2, 8]: −
OC[C@@]1(O)OC[C@H](O)[C@@H](O)[C@@H]1O [alpha-L-sorbopyranose - 9, alpha-L-sorbopyranose]			7	7	+	Increase (+) or Decrease (−) in ALS [2, 8]: +
NC(CCCC(=O)O)C(=O)O (stereo not drawn) [alpha-aminoadipic acid - 9, alpha-aminoadipic acid]			33	33	+	Increase (+) or Decrease (−) in ALS [2, 8]: +
NC(=O)CC[C@H](NC(=O)CC[C@H](N)C(=O)O)C(=O)O [gamma-L-glutamyl-L-glutamine - 35, gamma-L-glutamyl-L-glutamine]			16	16	+	Increase (+) or Decrease (−) in ALS [2, 8]: +
NCCCC(=O)N[C@@H](Cc1c[nH]cn1)C(=O)O [gamma-aminobutyryl-L-histidine - 35, gamma-aminobutyryl-L-histidine]			−7	−7	−	Increase (+) or Decrease (−) in ALS [2, 8]: −
O=P(O)(O)OC(CO)CO [glycerol-2-phosphate (Metabolite - 1820) - 35]			19		+	
NCCO [monoethanolamine- 9, monoethanolamine]			−7		−	
CC(=O)N[C@@H](CC(=O)O)C(=O)O [n-acetyl-L-aspartic acid]			−9	−9	−	Increase (+) or Decrease (−) in ALS [2, 8]: −
CCCCCCCCCCCC(=O)O [n-dodecanoate - 9, n-dodecanoate]			−2	−2	−	Increase (+) or Decrease (−) in ALS [2, 8]: −
NCCOP(=O)(O)O [o-phosphoethanolamine - 9, o-phosphoethanolamine]			11	11	+	Increase (+) or Decrease (−) in ALS [2, 8]: +
O=P(O)(O)OP(=O)(O)O [pyrophosphate - 35, pyrophosphate]			13	13	+	Increase (+) or Decrease (−) in ALS [2, 8]: +
Tartarate [Tartarate - 9]			0	0		
Vitamin-B6 [Vitamin-B6 - 9]			−2	−2	−	Increase (+) or Decrease (−) in ALS [2, 8]: −
alpha-Hydroxyisobutyric acid-tms [alpha-Hydroxyisobutyric acid-tms - 9]			27	27	+	Increase (+) or Decrease (−) in ALS [2, 8]: +
